Experimental data reported in publication PMC10468069.

Sequences of proteins named here, by UniProt entry; tags and fusion partners are left off.
UniProt P53894: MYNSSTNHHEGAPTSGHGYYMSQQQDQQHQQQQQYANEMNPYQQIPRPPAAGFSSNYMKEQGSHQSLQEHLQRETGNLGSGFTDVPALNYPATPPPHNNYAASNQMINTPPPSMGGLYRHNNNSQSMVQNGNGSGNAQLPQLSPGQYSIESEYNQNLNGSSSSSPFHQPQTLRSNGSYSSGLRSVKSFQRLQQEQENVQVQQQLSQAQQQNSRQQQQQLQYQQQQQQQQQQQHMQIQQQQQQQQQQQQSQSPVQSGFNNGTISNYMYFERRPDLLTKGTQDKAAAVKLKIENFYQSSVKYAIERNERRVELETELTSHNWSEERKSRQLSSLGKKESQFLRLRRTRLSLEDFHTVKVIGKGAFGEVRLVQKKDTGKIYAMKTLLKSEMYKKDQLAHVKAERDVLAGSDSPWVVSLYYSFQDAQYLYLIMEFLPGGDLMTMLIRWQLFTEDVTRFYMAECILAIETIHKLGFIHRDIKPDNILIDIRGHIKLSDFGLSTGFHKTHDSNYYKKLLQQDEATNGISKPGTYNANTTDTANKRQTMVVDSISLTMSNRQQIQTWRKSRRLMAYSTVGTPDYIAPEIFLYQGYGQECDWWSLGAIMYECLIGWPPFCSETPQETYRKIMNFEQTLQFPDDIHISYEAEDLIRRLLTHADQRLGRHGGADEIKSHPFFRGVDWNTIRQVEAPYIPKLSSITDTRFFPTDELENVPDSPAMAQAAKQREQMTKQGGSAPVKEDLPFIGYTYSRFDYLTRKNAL
UniProt P08964: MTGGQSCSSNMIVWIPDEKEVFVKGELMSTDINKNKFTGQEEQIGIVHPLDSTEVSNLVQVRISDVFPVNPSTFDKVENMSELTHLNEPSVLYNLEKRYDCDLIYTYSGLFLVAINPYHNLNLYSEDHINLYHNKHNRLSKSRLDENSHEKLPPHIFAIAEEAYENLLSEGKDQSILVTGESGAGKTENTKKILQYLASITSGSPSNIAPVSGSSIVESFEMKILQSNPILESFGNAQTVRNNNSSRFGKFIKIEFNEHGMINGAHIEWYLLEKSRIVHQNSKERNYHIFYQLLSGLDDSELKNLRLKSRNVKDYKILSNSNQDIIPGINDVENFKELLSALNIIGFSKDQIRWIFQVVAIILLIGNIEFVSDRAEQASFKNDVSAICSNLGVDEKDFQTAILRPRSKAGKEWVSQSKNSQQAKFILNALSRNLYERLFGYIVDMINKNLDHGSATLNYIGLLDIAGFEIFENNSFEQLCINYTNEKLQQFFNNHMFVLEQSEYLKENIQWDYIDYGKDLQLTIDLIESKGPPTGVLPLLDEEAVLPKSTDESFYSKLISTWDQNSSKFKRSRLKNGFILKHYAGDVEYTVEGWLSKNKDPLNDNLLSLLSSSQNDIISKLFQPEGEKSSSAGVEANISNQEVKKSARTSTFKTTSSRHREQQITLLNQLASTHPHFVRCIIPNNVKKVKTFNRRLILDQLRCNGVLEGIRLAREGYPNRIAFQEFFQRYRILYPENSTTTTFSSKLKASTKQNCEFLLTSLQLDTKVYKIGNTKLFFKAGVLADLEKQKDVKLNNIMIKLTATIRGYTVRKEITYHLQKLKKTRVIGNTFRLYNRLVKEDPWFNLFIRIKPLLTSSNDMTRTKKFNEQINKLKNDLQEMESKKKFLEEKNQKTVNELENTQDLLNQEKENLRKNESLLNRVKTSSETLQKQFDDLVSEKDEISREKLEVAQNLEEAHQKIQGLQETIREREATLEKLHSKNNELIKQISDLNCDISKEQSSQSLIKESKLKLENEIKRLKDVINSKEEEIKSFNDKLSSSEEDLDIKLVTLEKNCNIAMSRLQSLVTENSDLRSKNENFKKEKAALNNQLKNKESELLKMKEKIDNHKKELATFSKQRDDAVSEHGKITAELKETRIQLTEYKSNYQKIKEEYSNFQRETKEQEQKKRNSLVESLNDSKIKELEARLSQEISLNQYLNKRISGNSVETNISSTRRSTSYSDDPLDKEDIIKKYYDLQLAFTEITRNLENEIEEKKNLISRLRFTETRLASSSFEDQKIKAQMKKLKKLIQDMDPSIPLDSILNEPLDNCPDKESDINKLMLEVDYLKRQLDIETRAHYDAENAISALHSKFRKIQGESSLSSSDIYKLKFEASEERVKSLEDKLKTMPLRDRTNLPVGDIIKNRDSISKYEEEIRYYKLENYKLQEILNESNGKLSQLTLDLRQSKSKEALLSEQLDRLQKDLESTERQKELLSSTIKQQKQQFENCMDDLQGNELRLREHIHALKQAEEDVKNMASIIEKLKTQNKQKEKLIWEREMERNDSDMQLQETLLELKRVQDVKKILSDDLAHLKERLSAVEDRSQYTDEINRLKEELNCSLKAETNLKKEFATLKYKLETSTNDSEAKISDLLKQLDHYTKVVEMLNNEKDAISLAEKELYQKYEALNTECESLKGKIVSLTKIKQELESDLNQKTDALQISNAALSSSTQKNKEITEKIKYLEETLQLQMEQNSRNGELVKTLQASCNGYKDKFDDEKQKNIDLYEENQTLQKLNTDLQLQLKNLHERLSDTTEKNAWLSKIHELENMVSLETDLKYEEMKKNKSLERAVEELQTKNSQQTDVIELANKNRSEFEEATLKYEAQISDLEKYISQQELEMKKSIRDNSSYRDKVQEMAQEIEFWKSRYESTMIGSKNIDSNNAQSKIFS
UniProt P35169: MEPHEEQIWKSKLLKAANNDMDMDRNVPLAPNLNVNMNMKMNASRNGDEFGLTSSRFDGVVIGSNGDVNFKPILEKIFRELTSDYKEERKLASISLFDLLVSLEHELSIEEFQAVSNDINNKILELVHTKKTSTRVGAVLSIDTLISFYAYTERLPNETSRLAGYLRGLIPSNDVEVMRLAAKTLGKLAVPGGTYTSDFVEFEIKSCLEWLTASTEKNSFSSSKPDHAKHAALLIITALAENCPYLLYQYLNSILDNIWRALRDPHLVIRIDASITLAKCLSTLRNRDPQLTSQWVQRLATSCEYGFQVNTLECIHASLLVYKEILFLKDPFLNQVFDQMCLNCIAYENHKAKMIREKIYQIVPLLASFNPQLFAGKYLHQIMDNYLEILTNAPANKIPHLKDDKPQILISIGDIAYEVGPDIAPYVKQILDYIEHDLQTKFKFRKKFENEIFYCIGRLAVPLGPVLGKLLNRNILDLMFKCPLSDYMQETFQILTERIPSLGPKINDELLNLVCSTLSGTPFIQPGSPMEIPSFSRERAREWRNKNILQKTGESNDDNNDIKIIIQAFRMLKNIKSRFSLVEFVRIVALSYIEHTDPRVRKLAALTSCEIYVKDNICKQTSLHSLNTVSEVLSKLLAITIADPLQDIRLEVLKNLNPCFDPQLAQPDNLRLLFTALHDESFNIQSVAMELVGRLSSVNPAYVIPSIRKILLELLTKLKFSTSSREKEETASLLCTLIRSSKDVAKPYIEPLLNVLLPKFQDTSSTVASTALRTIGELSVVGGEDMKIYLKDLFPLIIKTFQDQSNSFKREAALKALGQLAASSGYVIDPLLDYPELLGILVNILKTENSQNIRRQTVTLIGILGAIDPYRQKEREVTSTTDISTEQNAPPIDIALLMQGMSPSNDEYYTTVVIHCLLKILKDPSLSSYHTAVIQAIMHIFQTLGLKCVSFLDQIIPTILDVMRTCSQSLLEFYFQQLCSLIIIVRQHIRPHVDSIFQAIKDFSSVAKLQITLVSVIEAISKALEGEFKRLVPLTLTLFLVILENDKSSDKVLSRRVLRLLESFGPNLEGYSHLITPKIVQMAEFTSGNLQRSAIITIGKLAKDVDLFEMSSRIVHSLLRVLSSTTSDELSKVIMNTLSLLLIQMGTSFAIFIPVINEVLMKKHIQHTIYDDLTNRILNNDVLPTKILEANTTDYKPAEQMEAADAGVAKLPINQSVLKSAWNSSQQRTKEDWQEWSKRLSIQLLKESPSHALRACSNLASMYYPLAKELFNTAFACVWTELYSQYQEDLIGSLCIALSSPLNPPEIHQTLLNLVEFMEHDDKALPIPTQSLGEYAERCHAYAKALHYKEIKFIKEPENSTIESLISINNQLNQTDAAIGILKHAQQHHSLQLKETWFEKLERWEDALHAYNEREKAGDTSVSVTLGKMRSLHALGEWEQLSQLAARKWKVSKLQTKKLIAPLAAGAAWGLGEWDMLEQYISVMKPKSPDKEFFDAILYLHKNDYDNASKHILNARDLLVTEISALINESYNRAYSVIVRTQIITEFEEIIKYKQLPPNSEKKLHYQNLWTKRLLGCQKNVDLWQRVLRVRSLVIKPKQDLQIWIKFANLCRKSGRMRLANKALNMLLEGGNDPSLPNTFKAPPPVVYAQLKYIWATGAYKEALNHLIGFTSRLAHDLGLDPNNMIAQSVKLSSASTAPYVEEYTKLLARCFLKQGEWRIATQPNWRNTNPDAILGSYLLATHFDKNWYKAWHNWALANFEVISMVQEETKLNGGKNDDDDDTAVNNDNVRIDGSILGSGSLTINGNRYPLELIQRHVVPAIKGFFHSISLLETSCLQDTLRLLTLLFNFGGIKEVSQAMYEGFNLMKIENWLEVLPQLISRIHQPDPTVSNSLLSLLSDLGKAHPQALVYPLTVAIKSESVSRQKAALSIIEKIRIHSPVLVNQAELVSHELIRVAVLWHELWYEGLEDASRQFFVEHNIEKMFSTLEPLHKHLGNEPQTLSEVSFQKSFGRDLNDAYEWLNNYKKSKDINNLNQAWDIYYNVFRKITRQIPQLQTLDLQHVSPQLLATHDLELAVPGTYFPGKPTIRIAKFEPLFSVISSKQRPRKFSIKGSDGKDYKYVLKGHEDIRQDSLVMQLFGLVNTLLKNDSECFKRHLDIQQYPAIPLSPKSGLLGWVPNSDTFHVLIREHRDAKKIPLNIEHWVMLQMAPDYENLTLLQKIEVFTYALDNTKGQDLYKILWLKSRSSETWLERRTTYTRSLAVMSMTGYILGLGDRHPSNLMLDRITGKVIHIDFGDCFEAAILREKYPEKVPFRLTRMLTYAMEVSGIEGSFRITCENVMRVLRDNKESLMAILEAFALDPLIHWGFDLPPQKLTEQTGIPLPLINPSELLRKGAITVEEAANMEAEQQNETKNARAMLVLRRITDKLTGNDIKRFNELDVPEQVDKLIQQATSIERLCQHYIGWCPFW
UniProt P33332: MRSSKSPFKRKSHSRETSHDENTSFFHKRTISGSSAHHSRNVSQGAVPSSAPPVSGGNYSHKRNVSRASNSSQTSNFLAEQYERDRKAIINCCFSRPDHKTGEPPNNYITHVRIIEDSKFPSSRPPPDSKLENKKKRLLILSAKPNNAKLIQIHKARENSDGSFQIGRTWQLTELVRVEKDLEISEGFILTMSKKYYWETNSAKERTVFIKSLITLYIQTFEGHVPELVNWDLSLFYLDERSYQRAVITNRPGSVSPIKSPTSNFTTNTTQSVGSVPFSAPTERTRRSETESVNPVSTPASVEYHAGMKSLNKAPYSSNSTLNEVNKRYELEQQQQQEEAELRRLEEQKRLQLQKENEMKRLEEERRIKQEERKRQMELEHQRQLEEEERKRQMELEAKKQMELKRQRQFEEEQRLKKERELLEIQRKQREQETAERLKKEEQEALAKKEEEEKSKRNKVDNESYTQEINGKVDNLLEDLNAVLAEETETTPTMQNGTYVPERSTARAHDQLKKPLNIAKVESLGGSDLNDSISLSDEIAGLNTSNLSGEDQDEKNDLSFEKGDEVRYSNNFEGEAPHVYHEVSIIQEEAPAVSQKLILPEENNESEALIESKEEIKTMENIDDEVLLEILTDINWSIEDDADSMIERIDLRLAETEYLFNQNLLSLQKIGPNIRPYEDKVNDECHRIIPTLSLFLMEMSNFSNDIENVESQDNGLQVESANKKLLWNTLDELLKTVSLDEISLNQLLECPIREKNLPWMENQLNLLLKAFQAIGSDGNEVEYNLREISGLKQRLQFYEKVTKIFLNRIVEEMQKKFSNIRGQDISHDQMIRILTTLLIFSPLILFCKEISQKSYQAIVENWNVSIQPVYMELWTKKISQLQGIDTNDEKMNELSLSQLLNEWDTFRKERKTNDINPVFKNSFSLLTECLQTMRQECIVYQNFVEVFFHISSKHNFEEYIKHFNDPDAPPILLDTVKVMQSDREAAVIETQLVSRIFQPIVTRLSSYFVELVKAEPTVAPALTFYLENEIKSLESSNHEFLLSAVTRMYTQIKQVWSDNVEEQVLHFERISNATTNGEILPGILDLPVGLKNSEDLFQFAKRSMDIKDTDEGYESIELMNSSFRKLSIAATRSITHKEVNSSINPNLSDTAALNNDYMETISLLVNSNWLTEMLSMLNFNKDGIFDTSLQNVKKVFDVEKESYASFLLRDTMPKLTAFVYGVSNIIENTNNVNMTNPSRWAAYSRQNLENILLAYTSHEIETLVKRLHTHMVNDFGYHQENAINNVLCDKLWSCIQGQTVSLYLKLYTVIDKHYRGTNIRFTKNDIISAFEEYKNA

B1: Ace2 (protein, UniProt P21192 1-770)
chain: MDNVVDPWYINPSGFAKDTQDEEYVQHHDNVNPTIPPPDNYILNNENDDGLDNLLGMDYYNIDDLLTQELRDLDIPLVPSPKTGDGSSDKKNIDRTWNLGDENNKVSHYSKKSMSSHKRGLSGTAIFGFLGHNKTLSISSLQQSILNMSKDPQPMELINELGNHNTVKNNNDDFDHIRENDGENSYLSQVLLKQQEELRIALEKQKEVNEKLEKQLRDNQIQQEKLRKVLEEQEEVAQKLVSGATNSNSKPGSPVILKTPAMQNGRMKDNAIIVTTNSANGGYQFPPPTLISPRMSNTSINGSPSRKYHRQRYPNKSPESNGLNLFSSNSGYLRDSELLSFSPQNYNLNLDGLTYNDHNNTSDKNNNDKKNSTGDNIFRLFEKTSPGGLSISPRINGNSLRSPFLVGTDKSRDDRYAAGTFTPRTQLSPIHKKRESVVSTVSTISQLQDDTEPIHMRNTQNPTLRNANALASSSVLPPIPGSSNNTPIKNSLPQKHVFQHTPVKAPPKNGSNLAPLLNAPDLTDHQLEIKTPIRNNSHCEVESYPQVPPVTHDIHKSPTLHSTSPLPDEIIPRTTPMKITKKPTTLPPGTIDQYVKELPDKLFECLYPNCNKVFKRRYNIRSHIQTHLQDRPYSCDFPGCTKAFVRNHDLIRHKISHNAKKYICPCGKRFNREDALMVHRSRMICTGGKKLEHSINKKLTSPKKSLLDSPHDTSPVKETIARDKDGSVLMKMEEQLRDDMRKHGLLDPPPSTAAHEQNSNRTLSNETDAL
B2: Fir1 (protein, UniProt P40020 1-876)
chain: MSLPVTPVKSKVCSTLSIQHEMDHDQCRDVLCPRENLLAINRTNNIESVAIPRQRSSKNKKPHEHTQSQVRFSIPDPNEISQDSPLKIVFPKSGNETERRMSTSSLLMNSHGHLVDMHSKILVDVPKEVWKFHHNRRKKCESRHRKTRSDVRSNTSSSGKEPNHSRSKSLQSIIVDTMNTYRATEVETSINENTSNISQVSPLNLSFDRPPPLTPEKNLYLTPESPLNRYHLPVPLEISLPPYLSPQNKDKKRSSLVYDGDGYSQFQEGNTSSSTESSLEQPSSSYSDEDDSIPYAHHDVSFELNNADADKLLGIDENANVNLKIQRRNLKNPQHIKSKTDRECEEKNTEKNVSLKILSTPNKLIDIPDLEHMKSPPSTGLNGTLKFFQQFEPSEEPTSPTRQVNPESLDKLDMSFKFPSSTTNNNVDKVHENRNSGDTNNEDFLKVDTSPVNQSFESRRQMLIDLQKSPTNNNPRIHKHRRSRSVHNIDDISLNFEATSTPPAPTSAPSIPVEHSNPCTSIEIPKRSPLRFTSSPKTSDIPPEAQSPKNGSFLQEISVPSIQIIPDESISHTREPSPSLIECPEDENEAFSTEVADHSIAIISETKSVPSIEPFKPLSSFNSFGQEIQNKEPTPLNQTPTDLIGKQRNCVNPHSIPFSVLSSNSQSSQSGSSKSSYNSEFSSNTAITDTTSQPSVTINRSTLEHNFIEEKRSIKNLGHGPPSQKNNYSFPRNKNTPSNRHDLDFNTIYEKRDGKMVEVILLDEDEDVGLKNNDISRTRVCHAQKAKNEQQKKRLSHCNEILGMCDKTADDAKRIIYQLVNEKHKFSEKGQQTKPKKSRVLPPLPFPLYDEKGNSLIPNKYQSSIHNDIPSHRKLK

Each molecule was assayed against Cbk1-GFP (S. cerevisiae) (UniProt P53894) (assay: affinity purification with mass spectrometry; Cbk1-GFP immunoprecipitated on GFP-Trap Magnetic beads from extracts of cdc15-2 (with or without rapamycin) and TOR1-1 cdc15-2 (with rapamycin) cells arrested in late anaphase at 37 °C; three biological replicates against untagged control cells; spectral counts, SAINT).

Row | binding | Molecule
1 | binds | Myo1 (from UniProt P08964 1-1928)
2 | binds | Tao3 (from UniProt P40468 1-2376)
3 | binds | Kog1 (from UniProt P38873 1-1557)
4 | binds | Tor1 (from UniProt P35169 1-2470) (enzyme)

Row | Molecule | binding
5 | Sec3 (from UniProt P33332 1-1336) | binds

Target: Cbk1-GFP (S. cerevisiae) (UniProt P53894)
Assay: as above
Remark: another data set of the same source

Row | binding | Molecule
6 | binds | B1
7 | binds | B2

Results are given in words; binding and its absence hold for the method and conditions named. Binding seen in cells or lysates may run through a third protein. These calls come from enrichment with a bait or labelling near it, and not all partners need be listed.
